# Experimental data as given in the M2OR odorant receptor database.
# The list shows a part of the results, in another mix than the full data. Calls are pooled over several reports, among them a noisy single-well screen. The list shows a part of the results.
# Key:
# Conditions in all cases: stereoisomer not certain
# [1] = molecular target: T1, UniProt Q8VGT4
# T1 sequence (whole entry): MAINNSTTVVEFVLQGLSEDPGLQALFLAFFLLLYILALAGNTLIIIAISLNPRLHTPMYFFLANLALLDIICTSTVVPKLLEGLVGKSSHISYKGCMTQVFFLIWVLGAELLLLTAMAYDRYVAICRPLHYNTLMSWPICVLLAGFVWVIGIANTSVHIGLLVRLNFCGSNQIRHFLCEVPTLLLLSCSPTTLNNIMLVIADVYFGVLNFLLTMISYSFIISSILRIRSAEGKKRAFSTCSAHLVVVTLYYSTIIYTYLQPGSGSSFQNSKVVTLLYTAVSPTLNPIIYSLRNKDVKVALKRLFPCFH
# In short: (§1)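 Each receptor–molecule pair is labelled responsive or non-responsive (inactive) according to whether the original authors judged the measured signal statistically different from baseline. The data were taken from the main text and supplementary material of published papers and checked for typos and inconsistencies. Assay methods differed by source, with transient luciferase assays in mammalian cell lines being common.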
# [2] = molecular target: T2, UniProt Q8VGU3
# T2 sequence (whole entry): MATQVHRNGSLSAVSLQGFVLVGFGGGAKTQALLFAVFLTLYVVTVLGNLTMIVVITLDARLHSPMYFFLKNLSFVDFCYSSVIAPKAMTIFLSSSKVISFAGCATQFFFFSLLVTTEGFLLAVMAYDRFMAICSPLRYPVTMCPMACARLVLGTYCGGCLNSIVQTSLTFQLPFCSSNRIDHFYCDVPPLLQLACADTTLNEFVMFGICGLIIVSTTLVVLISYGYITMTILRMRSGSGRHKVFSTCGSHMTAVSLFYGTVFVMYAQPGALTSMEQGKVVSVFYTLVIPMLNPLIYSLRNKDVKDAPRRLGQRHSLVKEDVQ
# In short: as §1
# [3] = molecular target: T3, UniProt Q8VGV1
# T3 sequence (whole entry): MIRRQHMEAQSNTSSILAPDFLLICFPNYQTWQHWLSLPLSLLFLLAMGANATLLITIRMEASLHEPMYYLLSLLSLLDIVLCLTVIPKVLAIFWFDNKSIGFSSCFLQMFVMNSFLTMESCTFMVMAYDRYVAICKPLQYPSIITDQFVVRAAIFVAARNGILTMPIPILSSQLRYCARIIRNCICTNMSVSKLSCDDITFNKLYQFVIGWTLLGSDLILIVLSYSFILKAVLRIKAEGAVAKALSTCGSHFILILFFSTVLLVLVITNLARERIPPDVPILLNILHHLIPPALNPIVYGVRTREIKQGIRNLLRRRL
# In short: as §1
# [4] = molecular target: T4, UniProt Q8VGV7
# T4 sequence (whole entry): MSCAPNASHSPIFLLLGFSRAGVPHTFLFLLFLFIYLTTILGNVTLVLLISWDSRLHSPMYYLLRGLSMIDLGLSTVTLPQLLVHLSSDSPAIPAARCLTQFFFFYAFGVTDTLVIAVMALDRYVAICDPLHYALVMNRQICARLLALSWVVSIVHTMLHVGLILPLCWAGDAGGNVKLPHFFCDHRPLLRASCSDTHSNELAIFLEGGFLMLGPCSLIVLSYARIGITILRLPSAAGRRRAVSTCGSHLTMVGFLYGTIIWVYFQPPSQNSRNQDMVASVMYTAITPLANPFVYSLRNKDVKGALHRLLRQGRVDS
# In short: as §1
# [5] = molecular target: T5, UniProt Q8VGX3
# T5 sequence (whole entry): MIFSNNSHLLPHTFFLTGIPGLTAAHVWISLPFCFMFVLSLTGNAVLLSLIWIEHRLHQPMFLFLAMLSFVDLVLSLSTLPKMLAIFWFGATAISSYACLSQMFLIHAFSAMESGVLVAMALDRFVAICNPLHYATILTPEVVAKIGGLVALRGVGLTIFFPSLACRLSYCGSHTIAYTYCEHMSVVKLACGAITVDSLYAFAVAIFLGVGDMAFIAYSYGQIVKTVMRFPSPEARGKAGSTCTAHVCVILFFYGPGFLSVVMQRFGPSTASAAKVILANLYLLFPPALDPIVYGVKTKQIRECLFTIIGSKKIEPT
# In short: as §1
# [6] = molecular target: T6, UniProt Q8VGX5
# T6 sequence (whole entry): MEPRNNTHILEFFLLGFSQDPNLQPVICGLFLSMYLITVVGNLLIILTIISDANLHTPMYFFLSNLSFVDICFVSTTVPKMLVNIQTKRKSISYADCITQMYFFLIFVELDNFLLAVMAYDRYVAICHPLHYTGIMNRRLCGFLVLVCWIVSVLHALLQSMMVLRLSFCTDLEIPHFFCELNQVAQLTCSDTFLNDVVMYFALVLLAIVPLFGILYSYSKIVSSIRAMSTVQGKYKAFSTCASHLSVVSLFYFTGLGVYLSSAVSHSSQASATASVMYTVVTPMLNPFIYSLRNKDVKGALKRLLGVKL
# In short: as §1
# [7] = molecular target: T7, UniProt Q8VGX8
# T7 sequence (whole entry): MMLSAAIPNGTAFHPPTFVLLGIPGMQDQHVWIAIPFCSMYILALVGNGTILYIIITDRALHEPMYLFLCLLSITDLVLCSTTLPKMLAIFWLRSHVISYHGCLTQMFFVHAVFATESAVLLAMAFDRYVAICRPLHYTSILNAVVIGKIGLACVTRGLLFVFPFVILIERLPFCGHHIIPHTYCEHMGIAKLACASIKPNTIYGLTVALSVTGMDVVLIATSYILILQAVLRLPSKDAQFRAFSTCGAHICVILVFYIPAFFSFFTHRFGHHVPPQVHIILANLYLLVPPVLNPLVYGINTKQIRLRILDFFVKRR
# In short: as §1
# [8] = molecular target: T8, UniProt Q8VGY6
# T8 sequence (whole entry): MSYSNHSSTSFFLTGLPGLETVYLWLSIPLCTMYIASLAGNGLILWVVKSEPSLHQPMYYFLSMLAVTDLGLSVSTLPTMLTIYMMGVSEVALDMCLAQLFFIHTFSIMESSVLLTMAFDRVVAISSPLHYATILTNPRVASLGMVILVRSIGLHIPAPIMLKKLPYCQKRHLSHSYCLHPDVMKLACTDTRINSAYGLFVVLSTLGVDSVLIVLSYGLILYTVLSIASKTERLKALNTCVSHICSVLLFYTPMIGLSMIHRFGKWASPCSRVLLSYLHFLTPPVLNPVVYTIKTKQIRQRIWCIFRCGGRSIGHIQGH
# In short: as §1
# [9] = molecular target: T9, UniProt Q8VGZ2
# T9 sequence (whole entry): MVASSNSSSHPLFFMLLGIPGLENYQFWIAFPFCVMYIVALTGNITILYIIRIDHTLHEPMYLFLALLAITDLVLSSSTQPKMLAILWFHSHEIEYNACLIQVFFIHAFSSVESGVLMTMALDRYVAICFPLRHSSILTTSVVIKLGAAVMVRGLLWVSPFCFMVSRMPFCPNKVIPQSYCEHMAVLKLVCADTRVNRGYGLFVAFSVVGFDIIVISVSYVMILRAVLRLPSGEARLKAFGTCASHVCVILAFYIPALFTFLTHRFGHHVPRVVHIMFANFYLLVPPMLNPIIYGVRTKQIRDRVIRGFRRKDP
# In short: as §1
# [10] = molecular target: T10, UniProt Q8VGZ7
# T10 sequence (whole entry): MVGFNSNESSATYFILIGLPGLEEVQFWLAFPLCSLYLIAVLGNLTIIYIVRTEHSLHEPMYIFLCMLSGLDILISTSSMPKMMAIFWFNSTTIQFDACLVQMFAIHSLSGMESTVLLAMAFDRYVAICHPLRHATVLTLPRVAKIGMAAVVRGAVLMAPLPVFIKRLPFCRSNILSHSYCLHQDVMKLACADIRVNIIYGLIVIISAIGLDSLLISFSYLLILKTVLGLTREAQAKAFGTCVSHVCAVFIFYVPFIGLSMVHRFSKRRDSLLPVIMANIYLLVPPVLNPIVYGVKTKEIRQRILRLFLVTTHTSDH
# In short: as §1
# [11] = molecular target: T11, UniProt Q8VH10
# T11 sequence (whole entry): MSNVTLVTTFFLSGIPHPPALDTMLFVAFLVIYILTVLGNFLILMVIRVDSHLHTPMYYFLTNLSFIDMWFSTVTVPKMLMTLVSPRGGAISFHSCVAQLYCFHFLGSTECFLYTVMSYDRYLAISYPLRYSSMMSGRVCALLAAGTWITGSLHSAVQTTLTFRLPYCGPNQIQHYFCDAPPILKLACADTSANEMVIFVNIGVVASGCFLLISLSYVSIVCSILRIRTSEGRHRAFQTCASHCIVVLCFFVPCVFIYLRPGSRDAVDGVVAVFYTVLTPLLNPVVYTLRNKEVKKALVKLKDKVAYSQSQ
# In short: as §1
# [12] = molecular target: T12, UniProt Q8VH16
# T12 sequence (whole entry): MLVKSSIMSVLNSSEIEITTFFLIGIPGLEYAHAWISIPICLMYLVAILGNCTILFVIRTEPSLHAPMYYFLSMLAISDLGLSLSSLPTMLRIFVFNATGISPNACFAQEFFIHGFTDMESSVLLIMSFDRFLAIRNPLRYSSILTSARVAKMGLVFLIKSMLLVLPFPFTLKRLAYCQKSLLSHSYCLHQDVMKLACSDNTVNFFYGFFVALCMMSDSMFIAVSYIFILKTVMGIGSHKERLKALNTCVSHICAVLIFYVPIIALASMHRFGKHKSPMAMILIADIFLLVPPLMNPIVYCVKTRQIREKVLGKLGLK
# In short: as §1
# [13] = molecular target: T13, UniProt Q8VH20
# T13 sequence (whole entry): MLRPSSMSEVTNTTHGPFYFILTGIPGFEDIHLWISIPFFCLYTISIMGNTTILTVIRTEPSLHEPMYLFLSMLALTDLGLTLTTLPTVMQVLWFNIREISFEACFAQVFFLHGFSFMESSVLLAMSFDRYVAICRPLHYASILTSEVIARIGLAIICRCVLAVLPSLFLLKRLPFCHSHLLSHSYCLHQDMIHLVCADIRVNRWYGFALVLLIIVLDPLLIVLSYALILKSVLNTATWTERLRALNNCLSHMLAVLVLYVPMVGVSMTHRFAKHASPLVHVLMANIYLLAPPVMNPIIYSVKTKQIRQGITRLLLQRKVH
# In short: as §1
# [14] = molecular target: T14, UniProt Q8VH21
# T14 sequence (whole entry): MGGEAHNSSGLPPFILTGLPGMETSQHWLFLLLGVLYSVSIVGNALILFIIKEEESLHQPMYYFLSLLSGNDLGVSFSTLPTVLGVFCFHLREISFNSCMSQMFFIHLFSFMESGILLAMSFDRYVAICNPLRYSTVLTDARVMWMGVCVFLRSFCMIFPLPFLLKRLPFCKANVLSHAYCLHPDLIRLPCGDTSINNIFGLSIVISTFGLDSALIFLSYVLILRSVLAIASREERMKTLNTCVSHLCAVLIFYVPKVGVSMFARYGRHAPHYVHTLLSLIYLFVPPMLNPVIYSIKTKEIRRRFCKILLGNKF
# In short: as §1
# [15] = molecular target: T15, UniProt Q924H8
# T15 sequence (whole entry): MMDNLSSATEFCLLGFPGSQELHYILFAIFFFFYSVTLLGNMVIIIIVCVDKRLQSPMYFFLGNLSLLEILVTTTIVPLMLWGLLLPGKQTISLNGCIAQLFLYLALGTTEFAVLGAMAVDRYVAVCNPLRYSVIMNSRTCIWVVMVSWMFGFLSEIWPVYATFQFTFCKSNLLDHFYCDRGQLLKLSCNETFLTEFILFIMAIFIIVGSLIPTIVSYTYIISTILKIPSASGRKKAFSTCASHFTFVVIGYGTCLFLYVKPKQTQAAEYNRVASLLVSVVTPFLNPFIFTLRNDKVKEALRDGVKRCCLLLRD
# In short: as §1
# [16] = molecular target: T16, UniProt Q920P1
# T16 sequence (whole entry): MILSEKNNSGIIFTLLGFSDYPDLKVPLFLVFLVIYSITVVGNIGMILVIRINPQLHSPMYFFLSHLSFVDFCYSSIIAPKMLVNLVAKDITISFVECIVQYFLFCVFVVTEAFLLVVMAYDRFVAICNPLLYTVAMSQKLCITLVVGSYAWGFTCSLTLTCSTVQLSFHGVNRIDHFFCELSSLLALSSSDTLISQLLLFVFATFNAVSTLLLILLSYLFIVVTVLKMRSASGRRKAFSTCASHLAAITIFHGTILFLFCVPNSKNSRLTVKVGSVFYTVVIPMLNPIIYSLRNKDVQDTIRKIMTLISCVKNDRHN
# In short: as §1
# [17] = molecular target: T17, UniProt Q920P2
# T17 sequence (whole entry): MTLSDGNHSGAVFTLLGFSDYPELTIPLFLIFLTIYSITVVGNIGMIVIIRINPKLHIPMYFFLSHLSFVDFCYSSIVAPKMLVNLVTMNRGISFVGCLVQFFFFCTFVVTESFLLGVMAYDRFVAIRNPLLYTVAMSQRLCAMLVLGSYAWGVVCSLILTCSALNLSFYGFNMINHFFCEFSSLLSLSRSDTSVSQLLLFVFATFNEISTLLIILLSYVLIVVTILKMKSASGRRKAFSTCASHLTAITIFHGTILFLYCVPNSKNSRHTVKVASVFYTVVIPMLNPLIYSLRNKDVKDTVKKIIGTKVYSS
# In short: as §1
# 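Note: active if original authors judged signal statistically different from baseline.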
smiles,measurement,setting,value
CCCCCC(C)=O,odorant receptor agonist call,[1],inactive
same,odorant receptor agonist call,[2],inactive
same,odorant receptor agonist call,[3],inactive
same,odorant receptor agonist call,[4],inactive
same,odorant receptor agonist call,[5],inactive
same,odorant receptor agonist call,[6],inactive
same,odorant receptor agonist call,[7],inactive
same,odorant receptor agonist call,[8],inactive
same,odorant receptor agonist call,[9],inactive
same,odorant receptor agonist call,[10],inactive
same,odorant receptor agonist call,[11],inactive
same,odorant receptor agonist call,[12],inactive
same,odorant receptor agonist call,[13],inactive
same,odorant receptor agonist call,[14],inactive
same,odorant receptor agonist call,[15],inactive
CC=Cc1ccc(O)c(OC)c1,odorant receptor agonist call,[16],inactive
same,odorant receptor agonist call,[17],inactive
COc1cc(C)ccc1O,odorant receptor agonist call,[16],inactive
COc1cc(C=O)ccc1O,odorant receptor agonist call,[2],inactive
same,odorant receptor agonist call,[4],inactive
same,odorant receptor agonist call,[5],inactive
same,odorant receptor agonist call,[6],inactive
same,odorant receptor agonist call,[9],inactive
same,odorant receptor agonist call,[10],inactive
same,odorant receptor agonist call,[12],inactive
same,odorant receptor agonist call,[13],inactive
same,odorant receptor agonist call,[14],inactive
same,odorant receptor agonist call,[17],active
same,odorant receptor agonist call,[15],inactive

# For convenience, part of the list above.
smiles,measurement,setting,value
CCCCCC(C)=O,odorant receptor agonist call,[2],inactive
same,odorant receptor agonist call,[3],inactive
